Laboratory results taken from paper PMC3402500, “Genes for Carbon Metabolism and the ToxA Virulence Factor in Pseudomonas aeruginosa Are Regulated through Molecular Interactions of PtxR and PtxS” (PLoS ONE, 2012).
These are yes or no findings as the source states them, for the method shown.

Target: T1, PtxR (Pseudomonas aeruginosa PAO1) (UniProt P72131)
T1 sequence: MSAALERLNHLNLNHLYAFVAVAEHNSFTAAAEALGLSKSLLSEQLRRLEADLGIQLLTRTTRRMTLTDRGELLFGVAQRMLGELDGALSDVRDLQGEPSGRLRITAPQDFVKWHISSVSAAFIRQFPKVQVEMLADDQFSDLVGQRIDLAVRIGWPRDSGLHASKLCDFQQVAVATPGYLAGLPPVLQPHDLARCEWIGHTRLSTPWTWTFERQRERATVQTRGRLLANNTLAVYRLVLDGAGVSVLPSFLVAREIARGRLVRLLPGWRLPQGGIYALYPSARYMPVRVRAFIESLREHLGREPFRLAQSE
Assay: ITC; as the titration of the free proteins, with 2-ketogluconate added to both protein solutions at a final concentration of 1 mM; both purified

B1: PtxS (natural protein)
chain: MNGSVLPSRGRVTINQVAEAAGVSKASVSRYIGGDRQLLADATARRIERAIDQLDYRPNQMARGLKRGRTRLIGMLVADILNPYSVAVMHGVETACREHGYSLVVCNTDRDDEQERHHLAALQSYNVEGLIVNTLGHHPGELRALHRELPMVLVDRQLAELDTDLVGLDNADAVEQALDHLQHRGFRDILLVTEPLDGTSSRIERVQAFNASIGRRPALKGQVLQTDDFFRDGLRAFLSASGPGPKALFTCNGVATLCATRQLRDLGCRLFDEVGLLALDELDWYPLVGSGITALAQPTDEIGRTAFERLLARLEGDREPARRVTFPAQLIVRGSTHPRG
notes: PtxS, LacI family transcriptional regulator of Pseudomonas aeruginosa PAO1; ptxS gene amplified from chromosomal DNA and cloned NheI/XhoI into pET24b(+); The NheI/XhoI cloning into pET24b(+) may add a few vector residues at both ends; source: E. coli BL21 (DE3), purified (His-Trap chelating column); not shown: His6, C-terminal, kept
binding: no binding (condition: with 1 mM 2-ketogluconate)
